Measurements reported in paper PMC8063935 (Pharmaceutics, 2021).

Test: peptide made by a vendor
Conditions: whole synthesis

Substance	purity (crude or final not stated)
RKIWWWWL-NH2	95.49%
PEPTIDE1{W.W.W.L.R.R.R.W.[am]}$$$$V2.0	95.33%
WWWLRKIW-NH2	96.57%
PEPTIDE1{R.R.R.W.W.W.W.V.[am]}$$$$V2.0	95.79%

Some peptides are written in HELM: one residue between dots, names in brackets for other building blocks, links after the first $.
